Assay results published in US20110104240A1, “Nitric Oxide Device and Method for Wound Healing, Treatment of Dermatological Disorders and Microbial Infections” (Micropharma Limited, priority 2008, published 2011).

Tested on: porcine liver esterase
Experiment: Enzymatic generation of gNO with porcine liver esterase, sodium nitrite and ester substrates
Type: biochemical
Conditions: sodium nitrite

In the case of `CC(=O)OCC(COC(C)=O)OC(C)=O` [triacetin, glyceryl triacetate], the gNO production (0.5% triacetin) is reported as at most 200 ppmV and the gNO production (1% triacetin in the assay) is reported as “up to 250 ppmV”.
